According to patent CN108047333A:
Results are given in words; binding and its absence hold for the method and conditions named. Some results given as binding are weak or reduced against the parent protein; the word gives no strength.

Protein sequences, listed by entry. Tags and fused reporters are not part of them. Residues count along the entry.
UniProt P20138, residues 18-259: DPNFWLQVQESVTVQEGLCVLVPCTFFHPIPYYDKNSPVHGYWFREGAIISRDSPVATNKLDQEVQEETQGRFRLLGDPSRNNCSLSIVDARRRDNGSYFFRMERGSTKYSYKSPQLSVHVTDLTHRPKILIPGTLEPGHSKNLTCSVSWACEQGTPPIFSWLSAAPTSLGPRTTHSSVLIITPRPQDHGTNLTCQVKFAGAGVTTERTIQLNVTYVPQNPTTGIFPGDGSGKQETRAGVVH

Target: CD33蛋白 (CD33 protein) (UniProt P20138)
Test: SPR

- binding: binds
B1: 单链抗体3-3 (anti-CD33 scFv) (scFv)
scFv: EVQLLESGGGLVQPGGSLRLSCAASGFTFSSYAMSWVRQAPGKGLEWVSTIRTGARTIYADSVKGRFTISRDNSKNTLYLQMNSLRAEDTAVYYCAKTKDPFDYWGQGTLVTVSSGGGGSGGGGSGGGGSTDIQMTQSPSSLSASVGDRVTITCRASQSISSYLNWYQQKPGKAPKLLYSASTLQSGVPSRFSGSGSGTDFTLTISSLQPEDFATYYCQQRTAWPYTFGQGTKVEIKR
